Test [1] has as its target T1, FCHo1-C-3×DDK (full-length wild-type FCHo1 with C-terminally fused 3×FLAG tag) (human) (UniProt O14526).
T1 sequence (looked up): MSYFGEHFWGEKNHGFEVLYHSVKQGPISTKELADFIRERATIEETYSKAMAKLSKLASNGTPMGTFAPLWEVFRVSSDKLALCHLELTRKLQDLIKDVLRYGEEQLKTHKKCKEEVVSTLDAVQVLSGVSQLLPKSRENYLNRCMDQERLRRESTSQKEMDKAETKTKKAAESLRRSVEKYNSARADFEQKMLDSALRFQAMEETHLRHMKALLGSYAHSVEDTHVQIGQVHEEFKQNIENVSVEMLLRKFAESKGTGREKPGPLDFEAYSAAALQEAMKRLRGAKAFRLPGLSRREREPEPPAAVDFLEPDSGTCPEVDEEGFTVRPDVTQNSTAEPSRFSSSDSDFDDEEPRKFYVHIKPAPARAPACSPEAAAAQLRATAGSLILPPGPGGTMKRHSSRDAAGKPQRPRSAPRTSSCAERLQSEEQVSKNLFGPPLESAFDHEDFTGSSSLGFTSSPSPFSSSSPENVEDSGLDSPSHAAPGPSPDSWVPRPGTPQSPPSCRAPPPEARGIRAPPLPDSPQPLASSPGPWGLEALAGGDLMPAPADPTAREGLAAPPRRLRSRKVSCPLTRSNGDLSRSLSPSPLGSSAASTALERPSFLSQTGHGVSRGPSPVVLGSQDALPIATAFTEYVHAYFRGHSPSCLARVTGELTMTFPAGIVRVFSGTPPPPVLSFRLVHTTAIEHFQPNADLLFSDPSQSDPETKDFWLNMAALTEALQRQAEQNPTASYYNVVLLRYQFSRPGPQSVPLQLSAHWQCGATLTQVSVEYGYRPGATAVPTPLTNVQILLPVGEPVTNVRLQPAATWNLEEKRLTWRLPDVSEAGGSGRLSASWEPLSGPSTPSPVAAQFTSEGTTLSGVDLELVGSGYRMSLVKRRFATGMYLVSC
The test is described as follows: co-immunoprecipitation with anti-FLAG antibody.

Protein sequences, listed by entry. Tags and fused reporters are not part of them. Residues count along the entry.
UniProt P63104: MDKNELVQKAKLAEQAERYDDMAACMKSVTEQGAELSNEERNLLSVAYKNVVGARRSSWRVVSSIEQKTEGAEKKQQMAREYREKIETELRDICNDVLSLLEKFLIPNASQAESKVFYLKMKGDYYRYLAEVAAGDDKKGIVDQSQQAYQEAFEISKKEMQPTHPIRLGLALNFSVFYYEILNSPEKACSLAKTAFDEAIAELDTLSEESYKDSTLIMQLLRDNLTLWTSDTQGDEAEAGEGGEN
UniProt P14780, residues 20-707: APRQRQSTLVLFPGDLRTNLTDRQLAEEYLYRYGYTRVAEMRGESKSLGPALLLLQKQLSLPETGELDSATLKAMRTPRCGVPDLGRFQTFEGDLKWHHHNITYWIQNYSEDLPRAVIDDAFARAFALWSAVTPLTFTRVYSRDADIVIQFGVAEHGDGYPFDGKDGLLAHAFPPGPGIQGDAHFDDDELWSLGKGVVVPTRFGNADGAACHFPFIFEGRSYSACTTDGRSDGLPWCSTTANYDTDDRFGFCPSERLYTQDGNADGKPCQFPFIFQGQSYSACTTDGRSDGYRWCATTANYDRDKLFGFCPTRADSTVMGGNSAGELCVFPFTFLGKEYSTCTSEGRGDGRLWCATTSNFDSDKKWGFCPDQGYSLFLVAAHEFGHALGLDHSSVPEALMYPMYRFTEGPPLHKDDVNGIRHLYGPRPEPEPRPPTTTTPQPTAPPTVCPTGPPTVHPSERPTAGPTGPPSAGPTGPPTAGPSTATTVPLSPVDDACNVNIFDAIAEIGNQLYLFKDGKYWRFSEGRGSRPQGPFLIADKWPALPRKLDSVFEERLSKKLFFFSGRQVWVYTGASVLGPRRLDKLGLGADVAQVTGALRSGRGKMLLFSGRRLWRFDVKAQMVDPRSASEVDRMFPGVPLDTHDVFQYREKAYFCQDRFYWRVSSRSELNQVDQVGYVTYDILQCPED

The target in test [2] is T1, FCHo1-C-3×DDK (full-length wild-type FCHo1 with C-terminally fused 3×FLAG tag) (human). The test is described as follows: co-immunoprecipitation (legend of FIG. 19).
In test [3] the target is T2, FCHo1 (FCH domain only 1), cellular protein of A549 cells detected with the α584-804 antibody (human) (UniProt O14526).
T2 sequence (looked up): T1 sequence (looked up)
The test is described as follows: in situ proximity ligation assay (PLA), A549 cells.

Test [4] concerns the target T2, FCHo1 (FCH domain only 1), cellular protein of A549 cells detected with the α584-804 antibody (human). The test is described as follows: in situ proximity ligation assay (PLA), FCHo1 (584-804) and MMP-9 antibodies, A549 cells.

These are yes or no findings as the source states them, for the method shown. In cells and extracts the contact can be indirect. Some entries that bind do so weakly or less than the wild type. For some of these results: Sequences can lack the tags named with a protein.

14-3-3ζ (from UniProt P63104 1-245): the binding result in test [1], in test [2] and in test [3] was “binds” in each case.
As to “matrix metallopeptidase 9 (MMP-9) (from UniProt P14780 20-707) (enzyme)”, in test [4], the binding entry is reported as “binds”.
